Earlier results, collected in patent US20030099710A1, “Granule modulating hydrogel system” (priority 1998, published 2003).

Details: background statement, no test described

SMILES: COc1ccc2cc([C@H](C)C(=O)O)ccc2c1 [Naproxen]
- minimum therapeutic plasma naproxen concentrations: 30 to 60 µg/mL
